86 sequences from the supplement of paper PMC3334620 can be followed below.

Over roughly 33,000 sequences, “E-score (-0.5 to 0.5)” has its median near -0.015; the highest 2% begin near 0.3. The list shows a part of the results.

This test deals with T1, Abf1 (UniProt P14164).
T1 sequence: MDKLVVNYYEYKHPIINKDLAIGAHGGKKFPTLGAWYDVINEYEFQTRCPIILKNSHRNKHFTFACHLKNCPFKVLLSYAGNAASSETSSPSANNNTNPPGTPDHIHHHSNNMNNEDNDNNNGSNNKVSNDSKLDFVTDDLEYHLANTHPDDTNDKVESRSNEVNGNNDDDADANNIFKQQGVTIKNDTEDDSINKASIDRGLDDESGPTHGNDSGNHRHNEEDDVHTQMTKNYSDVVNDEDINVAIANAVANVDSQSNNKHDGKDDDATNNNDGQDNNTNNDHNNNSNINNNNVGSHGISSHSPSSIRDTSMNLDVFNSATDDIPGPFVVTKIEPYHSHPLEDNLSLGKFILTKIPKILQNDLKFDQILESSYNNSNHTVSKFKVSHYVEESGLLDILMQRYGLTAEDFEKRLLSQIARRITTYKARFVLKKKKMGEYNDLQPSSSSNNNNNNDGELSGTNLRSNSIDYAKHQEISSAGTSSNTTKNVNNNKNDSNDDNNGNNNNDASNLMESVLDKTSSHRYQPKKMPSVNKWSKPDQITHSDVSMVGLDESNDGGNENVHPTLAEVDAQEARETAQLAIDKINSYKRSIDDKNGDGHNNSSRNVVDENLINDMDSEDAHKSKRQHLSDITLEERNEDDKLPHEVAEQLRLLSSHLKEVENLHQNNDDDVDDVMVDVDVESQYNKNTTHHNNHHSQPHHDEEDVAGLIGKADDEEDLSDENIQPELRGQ
Put plainly: PBM E-score (8-mer binding enrichment) (E-score (-0.5 to 0.5)); higher = stronger / more preferred TF binding. As to conditions: protein concentration: 200 nM; construct: GST-full length. The procedure, abridged: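 Using PURExpress in vitro transcription/translation, GST-tagged yeast transcription factors were made in full-length or DNA-binding-domain form. These were applied at about 100-200 nM to double-stranded universal all-10-mer Agilent arrays, and bound protein was detected with fluorescent anti-GST. Scans were normalised with masliner before the Universal PBM Analysis Suite assigned E-scores to ungapped eight-base words pooled with their reverse complements.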
With CCCAGCTA, the “PBM E-score” value was 0.0223.
Under AAACCGCC stands -0.217; under GGGCGTAC, 0.0418.
Consider GAATATTA, for which the “PBM E-score” value is 0.146.
For TTACCTAA the value was 0.0912; for GTTGAAGA, 0.0712.
For CCAATGCG the value was -0.177.
For ACCATTTA, the “PBM E-score” value worked out at 0.0343.
For CTGCGGTA, the “PBM E-score” value was -0.0796.
As for ACCGCTGG, the “PBM E-score” value is -0.192.
Turning to CAATGCGA, the “PBM E-score” value was -0.137.
For CGCCCAAC the value was -0.0175; for AGGGACAG, -0.3; for GAACTCGC, 0.0562.
Turning to TCTCAACA, the “PBM E-score” value came out at 0.105.
Take AGAGTAAT: the “PBM E-score” value amounted to 0.0837.
As to TCATTGCA, the “PBM E-score” value was found to be 0.063.
On to AATTAGCG, for which the “PBM E-score” value came out at 0.0868.
AGAACGTA: the “PBM E-score” value was determined as 0.0331.
With ACTTCCAG, the “PBM E-score” value was -0.132.
Under AGTAGCCG stands -0.0725; under CCCGCGCC, -0.134; under CTAGCTCC, -0.132.
With AGGTCCGA, the “PBM E-score” value was -0.0209.
For GAAGAGGA the value was -0.232; for ACTCTTCT, 0.0673.
As to CCCTCCCC, the “PBM E-score” value was -0.291.
On to AACAATGA, for which the “PBM E-score” value was 0.221.
As to AATGTCTC, the “PBM E-score” value stood at 0.0395.
On to ATTCTAAG, for which the “PBM E-score” value was -0.0161.
Under CCACCCCG stands -0.184.
For CCTCAAAC, the “PBM E-score” value is -0.0387.
In the case of AGGGCCCT, the “PBM E-score” value was -0.233.
For the sequence ATCTGCTC, the “PBM E-score” value was -0.0794.
Consider AAACACAT, for which the “PBM E-score” value is -0.0163.
Under TACTGCTA stands -0.221; under AAATGACT, 0.274; under GCAGGTTA, 0.0168.
Regarding ACTGCGGG, the “PBM E-score” value is 0.0139.
For ATCAGACG, the “PBM E-score” value stood at 0.0307.
With CCCAATAA, the “PBM E-score” value was -0.052.
With GCGTTGAC, the “PBM E-score” value is 0.0935.
Take ACGAGGGG: the “PBM E-score” value was -0.0831.
For the sequence ATCCTCGG, the “PBM E-score” value is -0.00426.
As to AGTCGTAC, the “PBM E-score” value was determined as 0.169.
For TGGAGCAA the value was -0.0554; for AGAATAGC, 0.0179; for CACGAGGG, -0.011.
With AGGACTAA, the “PBM E-score” value is -0.0301.
AGATCCAC: the “PBM E-score” value is 0.116.
As for AATGTGAC, the “PBM E-score” value was determined as 0.185.
Consider GAGCGGAA, for which the “PBM E-score” value was determined as 0.0523.
Under AAAGTCAT stands 0.205; under AGCCATTG, 0.0683.
As for AGCAAGGA, the “PBM E-score” value was -0.292.
For the sequence ACAGGTAG, the “PBM E-score” value was -0.0394.
Under CACCCGTC stands 0.0459; under CAAGTGGG, -0.00816.
For CGTGTGCA, the “PBM E-score” value came to 0.107.
As for AAACGCGC, the “PBM E-score” value is -0.178.
For AACAACAA, the “PBM E-score” value was found to be 0.103.
For AAGTGTAA, the “PBM E-score” value was -0.103.
ACTCACTG: the “PBM E-score” value was -0.112.
Take CAACGGCC: the “PBM E-score” value is -0.103.
As for AAGATCAA, the “PBM E-score” value is 0.123.
With GACACTAA, the “PBM E-score” value was -0.0284.
Consider GATCTCAC, for which the “PBM E-score” value was 0.0761.
Under CCGACTAA stands -0.106; under ATCTATGC, 0.108; under TCTCGTCA, 0.277.
For the sequence CTGCATGC, the “PBM E-score” value is -0.0428.
For AGGGTCTC the value was -0.214.
For CTCCGCGC the value was -0.159; for GTTGCAAA, 0.107; for AATTAATC, 0.154.
In the case of AATAGCCA, the “PBM E-score” value was -0.0176.
In the case of AGTGCCTC, the “PBM E-score” value is -0.198.
On to AACAGCCC, for which the “PBM E-score” value is -0.373.
Take ATCGTACG: the “PBM E-score” value is 0.394.
Under AAACGCAC stands -0.0189; under GAGAACTC, -0.0578.
With CGCGATAG, the “PBM E-score” value was 0.161.
Under CCCCTCGA stands -0.209; under CAATGGGC, -0.183.
For the sequence CCCAGGTA, the “PBM E-score” value is -0.238.
For AGAGAGTA the value was -0.00683.
